# Reference: the supplement of paper PMC4371806
# Whole data set: some 2,300 compounds, median “plate-normalized OD600 growth (mean of duplicates)” near 0.29, cut for the lowest 2% near 0.22. The list shows a part of the results.
# Test system: Escherichia coli BW25113
# Assay: plate-normalized OD600 growth (mean of duplicates) (OD600 (normalized)); higher = more growth (less inhibition)
# Settings: 10 µM
# Procedure: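 E. coli BW25113 in LB (100 µl, 96-well, no shaking) was exposed to 10 µM of each compound from a ~30,000-member library and grown at 37°C for 24 h or 15°C for 48 h, in duplicate. Growth was read as OD600 and the duplicate ODs were normalized across screening plates to correct plate-to-plate variation. Hits were >3σ below the mean OD600 at 15°C and <2σ below the mean at 37°C.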
SMILES,"plate-normalized OD600 growth (temperature: 15°C, 48 h)","plate-normalized OD600 growth (temperature: 37°C, 24 h)"
CC(C)=NNc1nc(-c2cc3ccccc3oc2=O)cs1,0.234,0.589
CCOC(=O)c1c(C)n(C)c2ccc(OCC)cc12,0.256,0.61
CCc1nc(N)c(C#N)c(-c2ccccc2)c1C,0.239,0.61
CC1=C(C#N)C(c2c(C)[nH]n(-c3ccccc3)c2=O)(C(F)(F)F)C(=O)N1 (centres undefined),0.26,0.62
O=C1CCC(=O)N1CN1CCc2ccccc2C1,0.238,0.611
Cc1[nH]c2c(Cl)cccc2c1CCNS(=O)(=O)c1ccc(C(C)(C)C)cc1,0.227,0.623
CCC(C)(C)C1CCc2sc3nc[nH]c(=O)c3c2C1 (centres undefined),0.248,0.626
COC1(c2sc3c(N4CCOCC4)nc(-c4cnc(N)nc4)nc3c2C)COC1,0.243,0.622
CCCCOc1ccc(S(=O)(=O)NC(=O)NCc2ccc(OCC)cc2)cc1,0.258,0.623
N#CC1=CNc2ccccc2N=C1N,0.252,0.625
CCN(CC)C(=O)c1[nH]c(C)c(C)c1C,0.219,0.611
CSC1=NCN(Cc2ccccc2)CN1,0.258,0.62
COc1ccc(-c2csc(N=Cc3c[nH]c4ccccc34)n2)cc1,0.254,0.602
CSc1ccccc1NC(=O)c1cc2n(n1)C(C(F)(F)F)C1CCc3ccccc3C1N2 (centres undefined),0.25,0.603
CCOC(=O)C(C=NNC(=O)c1ccc([N+](=O)[O-])cc1)=C(C)O,0.258,0.653
O=C1Nc2ccccc2/C1=N\n1c(C(F)(F)F)n[nH]c1=S,0.268,0.649
COc1ccc(/C=N/NC(=O)COc2ccc(Cl)cc2)cc1I,0.257,0.62
